Data as given in the supplement of paper PMC10849652.
Some of the results follow.

Amino acid sequences for entries named in this document (tags omitted). A change or cut given only in a name is not applied to a line headed by its entry.
UniProt O43312: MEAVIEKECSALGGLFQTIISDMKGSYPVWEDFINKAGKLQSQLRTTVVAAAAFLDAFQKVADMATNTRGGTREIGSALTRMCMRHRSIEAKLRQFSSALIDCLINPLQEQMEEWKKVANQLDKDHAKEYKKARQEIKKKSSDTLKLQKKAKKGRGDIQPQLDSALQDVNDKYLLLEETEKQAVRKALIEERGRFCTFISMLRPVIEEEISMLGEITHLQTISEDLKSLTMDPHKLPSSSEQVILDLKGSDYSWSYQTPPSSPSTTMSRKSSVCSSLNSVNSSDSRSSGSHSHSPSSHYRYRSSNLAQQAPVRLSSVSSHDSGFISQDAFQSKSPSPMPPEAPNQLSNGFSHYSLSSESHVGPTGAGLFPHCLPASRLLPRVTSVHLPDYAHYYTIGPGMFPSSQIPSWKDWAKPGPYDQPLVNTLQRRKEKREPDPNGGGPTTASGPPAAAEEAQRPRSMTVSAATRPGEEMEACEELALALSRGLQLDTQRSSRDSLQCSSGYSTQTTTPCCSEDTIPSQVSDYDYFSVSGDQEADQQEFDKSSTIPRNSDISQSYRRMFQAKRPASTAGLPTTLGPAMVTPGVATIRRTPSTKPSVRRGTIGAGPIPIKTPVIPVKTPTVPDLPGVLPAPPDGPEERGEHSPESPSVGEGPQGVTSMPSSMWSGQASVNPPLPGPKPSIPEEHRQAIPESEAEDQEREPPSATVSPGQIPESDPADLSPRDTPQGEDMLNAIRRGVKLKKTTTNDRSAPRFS
UniProt Q9UJ68: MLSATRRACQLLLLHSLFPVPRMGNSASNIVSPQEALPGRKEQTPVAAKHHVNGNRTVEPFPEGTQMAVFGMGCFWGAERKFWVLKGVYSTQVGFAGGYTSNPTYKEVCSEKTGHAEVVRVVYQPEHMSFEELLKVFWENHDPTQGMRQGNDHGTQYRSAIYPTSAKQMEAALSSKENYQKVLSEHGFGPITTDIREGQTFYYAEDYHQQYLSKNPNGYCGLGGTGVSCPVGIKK
UniProt Q9H903: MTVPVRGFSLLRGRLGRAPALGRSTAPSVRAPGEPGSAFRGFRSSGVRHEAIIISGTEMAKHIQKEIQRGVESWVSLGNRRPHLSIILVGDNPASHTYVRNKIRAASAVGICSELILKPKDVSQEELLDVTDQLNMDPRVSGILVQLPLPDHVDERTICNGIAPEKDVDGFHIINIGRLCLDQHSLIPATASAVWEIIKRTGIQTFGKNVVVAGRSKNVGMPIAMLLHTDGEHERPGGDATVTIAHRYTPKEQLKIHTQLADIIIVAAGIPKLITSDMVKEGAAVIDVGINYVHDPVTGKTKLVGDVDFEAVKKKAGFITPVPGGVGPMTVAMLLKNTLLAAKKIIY
UniProt P03923, whole entry, looked up: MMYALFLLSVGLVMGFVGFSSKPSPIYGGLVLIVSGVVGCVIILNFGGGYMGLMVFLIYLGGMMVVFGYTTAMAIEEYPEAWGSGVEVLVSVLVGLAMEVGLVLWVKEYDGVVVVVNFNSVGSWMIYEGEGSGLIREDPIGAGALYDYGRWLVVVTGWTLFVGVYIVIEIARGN
UniProt Q9HCI7: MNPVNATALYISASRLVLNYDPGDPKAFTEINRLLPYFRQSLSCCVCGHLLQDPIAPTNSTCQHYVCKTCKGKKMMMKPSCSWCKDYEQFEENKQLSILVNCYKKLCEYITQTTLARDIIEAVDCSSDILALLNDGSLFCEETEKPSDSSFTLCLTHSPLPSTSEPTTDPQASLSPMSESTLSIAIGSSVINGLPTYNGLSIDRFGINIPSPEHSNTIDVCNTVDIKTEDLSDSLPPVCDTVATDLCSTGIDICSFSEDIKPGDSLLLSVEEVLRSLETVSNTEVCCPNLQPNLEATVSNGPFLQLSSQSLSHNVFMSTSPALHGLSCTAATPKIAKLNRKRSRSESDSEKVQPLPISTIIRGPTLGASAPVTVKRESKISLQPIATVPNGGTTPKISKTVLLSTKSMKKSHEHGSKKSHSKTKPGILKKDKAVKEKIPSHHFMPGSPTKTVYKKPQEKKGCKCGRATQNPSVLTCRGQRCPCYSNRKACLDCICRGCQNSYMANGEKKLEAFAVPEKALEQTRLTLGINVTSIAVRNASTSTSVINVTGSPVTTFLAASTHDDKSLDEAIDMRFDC
UniProt Q2M296: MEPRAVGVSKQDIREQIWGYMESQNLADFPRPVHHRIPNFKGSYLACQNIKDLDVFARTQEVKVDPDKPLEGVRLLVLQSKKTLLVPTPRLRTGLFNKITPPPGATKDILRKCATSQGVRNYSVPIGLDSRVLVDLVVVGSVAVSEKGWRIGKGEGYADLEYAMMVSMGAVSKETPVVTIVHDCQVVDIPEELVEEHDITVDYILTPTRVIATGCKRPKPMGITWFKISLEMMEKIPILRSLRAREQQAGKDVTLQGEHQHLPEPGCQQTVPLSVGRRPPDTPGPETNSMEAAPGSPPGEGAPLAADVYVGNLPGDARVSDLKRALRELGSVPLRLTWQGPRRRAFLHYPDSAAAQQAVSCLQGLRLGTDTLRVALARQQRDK
UniProt Q9NYA4: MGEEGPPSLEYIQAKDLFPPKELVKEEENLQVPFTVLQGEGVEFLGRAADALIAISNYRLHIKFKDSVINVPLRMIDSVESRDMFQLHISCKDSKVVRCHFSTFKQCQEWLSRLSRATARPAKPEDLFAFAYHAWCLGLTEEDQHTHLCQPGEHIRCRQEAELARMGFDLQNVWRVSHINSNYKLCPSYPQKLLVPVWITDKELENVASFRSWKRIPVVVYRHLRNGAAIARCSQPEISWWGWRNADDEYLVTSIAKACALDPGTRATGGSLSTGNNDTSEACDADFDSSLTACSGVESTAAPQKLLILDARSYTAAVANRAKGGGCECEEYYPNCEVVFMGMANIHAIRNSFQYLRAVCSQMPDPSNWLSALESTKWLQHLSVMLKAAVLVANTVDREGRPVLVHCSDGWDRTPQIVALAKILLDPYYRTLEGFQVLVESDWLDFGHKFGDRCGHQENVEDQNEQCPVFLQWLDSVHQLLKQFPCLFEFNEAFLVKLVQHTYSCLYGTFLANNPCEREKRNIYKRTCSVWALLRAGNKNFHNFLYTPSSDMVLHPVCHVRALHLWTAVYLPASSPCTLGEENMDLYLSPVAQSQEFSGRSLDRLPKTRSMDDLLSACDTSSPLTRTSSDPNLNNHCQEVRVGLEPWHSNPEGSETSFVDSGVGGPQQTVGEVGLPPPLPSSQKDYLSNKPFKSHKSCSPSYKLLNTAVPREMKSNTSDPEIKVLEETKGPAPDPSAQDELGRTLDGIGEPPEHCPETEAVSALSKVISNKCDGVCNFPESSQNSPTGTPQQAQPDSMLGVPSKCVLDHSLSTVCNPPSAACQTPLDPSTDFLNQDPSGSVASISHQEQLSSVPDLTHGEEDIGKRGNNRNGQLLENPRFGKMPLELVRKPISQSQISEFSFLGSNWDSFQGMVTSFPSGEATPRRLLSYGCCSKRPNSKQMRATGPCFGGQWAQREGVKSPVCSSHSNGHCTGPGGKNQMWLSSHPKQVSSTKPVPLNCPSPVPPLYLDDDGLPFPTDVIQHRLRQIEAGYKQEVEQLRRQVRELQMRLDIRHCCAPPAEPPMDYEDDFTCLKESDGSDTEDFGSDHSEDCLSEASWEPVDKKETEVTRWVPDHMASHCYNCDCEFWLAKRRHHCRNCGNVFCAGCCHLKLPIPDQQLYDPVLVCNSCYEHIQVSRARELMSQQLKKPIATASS
UniProt Q6P1R3: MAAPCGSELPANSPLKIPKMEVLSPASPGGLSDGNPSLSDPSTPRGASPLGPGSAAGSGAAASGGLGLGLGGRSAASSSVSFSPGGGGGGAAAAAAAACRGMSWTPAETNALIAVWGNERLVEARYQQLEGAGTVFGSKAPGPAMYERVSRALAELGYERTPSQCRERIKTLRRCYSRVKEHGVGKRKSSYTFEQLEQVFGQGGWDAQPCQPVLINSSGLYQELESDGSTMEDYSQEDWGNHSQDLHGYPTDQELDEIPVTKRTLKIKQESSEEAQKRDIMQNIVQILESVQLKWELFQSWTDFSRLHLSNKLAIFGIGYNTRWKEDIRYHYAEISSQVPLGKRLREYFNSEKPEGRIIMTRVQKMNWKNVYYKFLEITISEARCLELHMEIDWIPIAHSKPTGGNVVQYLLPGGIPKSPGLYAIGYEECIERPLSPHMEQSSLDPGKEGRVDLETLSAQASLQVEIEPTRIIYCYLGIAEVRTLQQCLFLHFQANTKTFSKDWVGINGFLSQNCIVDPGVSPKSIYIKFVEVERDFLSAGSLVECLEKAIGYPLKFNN
UniProt Q96EF0: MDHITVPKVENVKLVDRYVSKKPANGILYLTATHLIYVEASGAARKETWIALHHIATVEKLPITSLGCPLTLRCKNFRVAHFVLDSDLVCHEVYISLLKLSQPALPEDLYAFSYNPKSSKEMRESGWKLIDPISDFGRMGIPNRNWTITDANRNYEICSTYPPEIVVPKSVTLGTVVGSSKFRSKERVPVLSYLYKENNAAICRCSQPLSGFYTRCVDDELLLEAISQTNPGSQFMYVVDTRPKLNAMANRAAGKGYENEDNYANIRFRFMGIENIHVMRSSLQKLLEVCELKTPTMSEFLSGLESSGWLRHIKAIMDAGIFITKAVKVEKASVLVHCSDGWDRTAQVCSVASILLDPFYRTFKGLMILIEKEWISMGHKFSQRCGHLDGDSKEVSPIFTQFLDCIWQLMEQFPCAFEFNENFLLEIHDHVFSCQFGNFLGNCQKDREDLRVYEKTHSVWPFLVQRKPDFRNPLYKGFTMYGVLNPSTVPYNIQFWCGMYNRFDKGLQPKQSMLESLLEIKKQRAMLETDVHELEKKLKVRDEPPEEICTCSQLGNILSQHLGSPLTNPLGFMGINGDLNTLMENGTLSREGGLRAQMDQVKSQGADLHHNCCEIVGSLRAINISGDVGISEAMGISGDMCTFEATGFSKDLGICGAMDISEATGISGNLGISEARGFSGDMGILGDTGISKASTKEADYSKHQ
UniProt P55157: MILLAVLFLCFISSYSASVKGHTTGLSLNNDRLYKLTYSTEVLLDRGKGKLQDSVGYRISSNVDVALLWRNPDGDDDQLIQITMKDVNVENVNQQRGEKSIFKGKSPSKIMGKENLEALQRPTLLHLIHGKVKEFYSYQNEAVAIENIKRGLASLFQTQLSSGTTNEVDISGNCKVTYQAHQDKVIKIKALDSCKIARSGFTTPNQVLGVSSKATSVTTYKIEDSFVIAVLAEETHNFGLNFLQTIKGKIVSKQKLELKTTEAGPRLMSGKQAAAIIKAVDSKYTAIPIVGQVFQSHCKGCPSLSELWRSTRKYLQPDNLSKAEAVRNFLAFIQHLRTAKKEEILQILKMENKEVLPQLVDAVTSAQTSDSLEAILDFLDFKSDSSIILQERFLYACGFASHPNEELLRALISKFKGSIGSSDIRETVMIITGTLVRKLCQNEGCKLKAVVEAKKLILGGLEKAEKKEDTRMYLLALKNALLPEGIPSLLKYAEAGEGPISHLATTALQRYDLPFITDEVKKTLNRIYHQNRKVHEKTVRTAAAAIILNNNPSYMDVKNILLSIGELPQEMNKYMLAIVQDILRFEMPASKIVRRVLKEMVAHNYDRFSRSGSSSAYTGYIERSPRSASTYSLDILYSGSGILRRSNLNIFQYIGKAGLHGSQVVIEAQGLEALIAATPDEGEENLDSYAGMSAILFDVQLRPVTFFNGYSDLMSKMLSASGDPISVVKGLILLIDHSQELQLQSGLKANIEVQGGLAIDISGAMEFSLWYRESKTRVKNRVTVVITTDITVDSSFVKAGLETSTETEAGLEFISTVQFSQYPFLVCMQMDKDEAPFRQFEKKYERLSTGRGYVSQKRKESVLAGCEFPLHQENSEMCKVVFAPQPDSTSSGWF
UniProt Q49AM1: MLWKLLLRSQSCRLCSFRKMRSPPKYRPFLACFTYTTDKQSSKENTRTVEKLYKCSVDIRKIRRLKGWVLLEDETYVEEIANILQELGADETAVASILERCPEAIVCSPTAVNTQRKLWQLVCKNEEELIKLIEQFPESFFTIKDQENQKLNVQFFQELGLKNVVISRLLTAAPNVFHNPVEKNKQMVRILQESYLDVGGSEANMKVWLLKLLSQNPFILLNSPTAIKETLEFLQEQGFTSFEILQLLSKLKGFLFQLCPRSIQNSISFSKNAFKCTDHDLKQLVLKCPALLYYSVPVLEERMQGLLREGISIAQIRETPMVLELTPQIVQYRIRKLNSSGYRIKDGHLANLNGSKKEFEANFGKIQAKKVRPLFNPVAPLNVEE
UniProt P03897, whole entry, looked up: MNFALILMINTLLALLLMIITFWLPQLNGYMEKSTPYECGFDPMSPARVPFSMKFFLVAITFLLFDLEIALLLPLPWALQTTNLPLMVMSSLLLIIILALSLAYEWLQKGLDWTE
UniProt P13640: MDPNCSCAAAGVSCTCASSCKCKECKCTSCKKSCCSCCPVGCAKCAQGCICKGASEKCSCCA

Key:
Test in all cases: log2 fold change, soluble protein after heating vs DMSO (PISA); higher = thermal stabilisation; K562 lysate, 10 uM; active = over 0.2 and 3.5 SD of the protein, either way, in both replicates (recomputed)
ibrutinib = compound: C=CC(=O)N1CCC[C@@H](n2nc(-c3ccc(Oc4ccccc4)cc3)c3c(N)ncnc32)C1 [ibrutinib]
In short: (§1)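 Dounce homogenisation of K562 pellets in PBS pH 7.4 with 1 mM MgCl2 produced a crude extract, used at 1 mg/mL protein. Exposure to 10 μM compound lasted 30 min, and aliquots were then heated for 3 min across 48°C-58°C, pooled and brought to 0.5% NP-40 at 4°C. The supernatant after 21,000xg for 90 min was quantified by TMTpro 16plex LC-MS/MS with channel sums equalised. Duplicate values are given as log-two fold change in thermal stability relative to solvent controls.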

[1] = compound: CC1=C(C(CC(=O)N1)C2=CC=C(C=C2)C(F)(F)F)C(=O)NC3=C(C=C4C(=C3)C=NN4)F
In short: as §1

barasertib = compound: CCN(CCCOc1ccc2c(Nc3cc(CC(=O)Nc4cccc(F)c4)[nH]n3)ncnc2c1)CCOP(=O)(O)O [barasertib]
In short: as §1

[2] = compound: CC(=O)c1cnc2ccc(-c3cc(Cl)c(O)c(Cl)c3)nc2c1N[C@H]1CC[C@H](CN(C)C)CC1
In short: as §1

ralimetinib = compound: CC(C)(C)Cn1c(N)nc2ccc(-c3[nH]c(C(C)(C)C)nc3-c3ccc(F)cc3)nc21 [ralimetinib]
In short: as §1

[3] = compound: CC(C)(O)CC(=O)NCCn1ccc2ncnc(Nc3ccc(Oc4cccc(C(F)(F)F)c4)c(Cl)c3)c21
In short: as §1

[4] = compound: CC1=C(C2=C(C=C1)C(=O)C3=CC=CC=C3N2CCCN)C
In short: as §1

[5] = compound: CC1=C(C=C(C=C1)NC(=O)C2=CC(=CC=C2)C(C)(C)C#N)NC3=CC4=C(C=C3)N=CN(C4=O)C
In short: as §1

[6] = compound: CC1=C(C=C(C=C1)NC(=O)C2=CC(=CC=C2)N(C)C)NC(=O)C3=CC=C(C=C3)O
In short: as §1

[7] = compound: CC1=CC=C(C=C1)SC2=C3C=C(SC3=CN=C2)C(=O)N
In short: as §1

[8] = compound: CCCS(=O)(=O)Nc1ccc(F)c(C(=O)c2c[nH]c3ncc(Cl)cc23)c1F
In short: as §1

volasertib = compound: CC[C@@H]1C(=O)N(C)c2cnc(Nc3ccc(C(=O)N[C@H]4CC[C@H](N5CCN(CC6CC6)CC5)CC4)cc3OC)nc2N1C(C)C [volasertib]
In short: as §1

[9] = compound: CCn1c(C(=O)N(C2CC2)C2CC2)cc2c3c(ncn3C)c(Nc3cc(C)n(C)n3)nc21
In short: as §1

saracatinib = compound: CN1CCN(CCOc2cc(OC3CCOCC3)c3c(Nc4c(Cl)ccc5c4OCO5)ncnc3c2)CC1 [saracatinib]
In short: as §1

sotrastaurin = compound: CN1CCN(c2nc(C3=C(c4c[nH]c5ccccc45)C(=O)NC3=O)c3ccccc3n2)CC1 [sotrastaurin]
In short: as §1

[10] = compound: CC[C@@H]1C(=O)N(C)c2cnc(Nc3ccc(C(=O)NC4CCN(C)CC4)cc3OC)nc2N1C1CCCC1
In short: as §1

[11] = compound: CCn1cc(-c2ccnc3[nH]c(-c4cccc(CN(C)C)c4)cc23)c(-c2ccc(NC(=O)N(C)C)cc2)n1
In short: as §1

[12] = compound: CN1CCC(CNc2ccc3ncc(-c4cccc(OC(F)(F)F)c4)n3n2)CC1
In short: as §1

[13] = compound: CC(C)C1=C2N=C(C=C(N2N=C1)NCC3=CC=CC=C3)NCCCCCCN
In short: as §1

vemurafenib = compound: CCCS(=O)(=O)Nc1ccc(F)c(C(=O)c2c[nH]c3ncc(-c4ccc(Cl)cc4)cc23)c1F [vemurafenib]
In short: as §1

Measured: log2 fold change

MTHFR (UniProt F8W9T8)
inactive: ibrutinib 0.176 | [1] 0.037 | barasertib 0.218

MTSS1 isoform 5 (UniProt O43312)
inactive: [2] -0.408 | ralimetinib -0.165 | [3] 0.617 | [1] -0.024 | [4] 0.486 | [5] -0.001 | [6] 0.318 | [7] 0.507 | [8] -0.375 | volasertib -0.166 | [9] -0.557 | saracatinib -0.21 | sotrastaurin 0.04

MSRA (UniProt Q9UJ68)
inactive: [2] 0.015 | [7] 0.229 | [8] -0.039 | [10] -0.092 | volasertib -0.033 | [11] 0.151 | [12] -0.143

MTHFD2L (UniProt Q9H903)
inactive: ibrutinib 0.044 | [13] -0.093 | [5] 0.059 | barasertib 0.192 | [11] -0.133 | [12] 0.005 | sotrastaurin 0.038

MT-ND6 (UniProt P03923)
inactive: [2] -0.06 | ralimetinib -0.128 | [3] -0.165 | [13] -0.159 | [5] 0.076 | [6] 0.083 | [7] -0.064 | [8] 0.151 | volasertib 0.037 | [9] -0.153 | [11] -0.499 | [12] -0.062 | sotrastaurin 0.003

MRPL34 (UniProt Q9BQ48)
inactive: ibrutinib 0.047 | [2] -0.078 | [4] -0.019 | [5] 0.044 | [7] 0.104 | [8] -0.018 | barasertib 0.016 | [10] 0.129 | volasertib -0.283 | [11] 0.035 | [12] -0.014 | saracatinib -0.348 | sotrastaurin 0.006

MSL2 (UniProt Q9HCI7)
inactive: ralimetinib 0.039 | [3] 0.092 | [13] -0.189 | [1] -0.118 | [5] 0.066 | [6] 0.139 | vemurafenib 0.006 | [10] 0.166 | [9] -0.199 | sotrastaurin 0.033

2 records drawn at random from the list so far, as already listed:
MSRA (UniProt Q9UJ68)
inactive: [2] 0.015 | [7] 0.229 | [8] -0.039 | [10] -0.092 | volasertib -0.033 | [11] 0.151 | [12] -0.143

MT-ND6 (UniProt P03923)
inactive: [2] -0.06 | ralimetinib -0.128 | [3] -0.165 | [13] -0.159 | [5] 0.076 | [6] 0.083 | [7] -0.064 | [8] 0.151 | volasertib 0.037 | [9] -0.153 | [11] -0.499 | [12] -0.062 | sotrastaurin 0.003

Additional entries.

MTHFSD (UniProt Q2M296)
inactive: ibrutinib 0.051 | [2] -0.017 | [13] 0.051 | [1] 0.059 | [4] -0.277 | [5] -0.029 | [7] 0.03 | [8] 0.086 | barasertib 0.087 | [10] 0.034 | volasertib 0.031 | saracatinib 0.05 | sotrastaurin -0.025

MTMR4 (UniProt Q9NYA4)
inactive: [2] -0.011 | ralimetinib -0.029 | [3] -0.07 | [13] 0.049 | [1] 0.062 | [4] 0.006 | [5] -0.162 | [6] 0.031 | [7] -0.017 | vemurafenib 0.19 | [8] -0.013 | volasertib 0.013 | [9] 0.045 | [11] -0.04 | [12] -0.01 | saracatinib -0.121 | sotrastaurin -0.014

MSANTD2 (UniProt Q6P1R3)
inactive: [13] -0.041 | [4] -0.136 | [5] -0.032 | vemurafenib 0.183 | [10] -0.063 | [11] -0.138 | [12] 0.057 | saracatinib 0.011 | sotrastaurin 0.075

MTMR8 (UniProt Q96EF0)
inactive: ibrutinib 0.023 | [13] 0.015 | [4] 0.162 | barasertib 0.087 | saracatinib -0.143

MRPL24 (UniProt Q96A35)
inactive: [2] -0.018 | ralimetinib 0.028 | [3] 0.013 | [13] 0.062 | [1] -0.003 | [4] -0.143 | [5] 0.001 | [6] 0.038 | [7] 0.004 | vemurafenib 0.018 | [8] 0.039 | [10] 0.011 | volasertib -0.042 | [9] 0.037 | [11] 0.061 | [12] -0.097 | saracatinib 0.019 | sotrastaurin -0.021

MTTP (UniProt P55157)
inactive: ibrutinib -0.269 | barasertib 0.092

MTERF2 (UniProt Q49AM1)
inactive: ralimetinib 0.082 | [3] -0.101 | [13] -0.035 | [4] 0.049 | [5] 0.067 | [6] 0.095 | [10] -0.03 | [9] 0.112 | saracatinib 0.068 | sotrastaurin 0.094

MT-ND3 (UniProt P03897)
inactive: ibrutinib -0.442 | [2] -0.137 | ralimetinib -0.123 | [3] 0.207 | [13] -0.147 | [1] 0.046 | [5] -0.028 | [6] -0.142 | [7] -0.287 | [8] -0.102 | barasertib 0.043 | [10] -0.187 | volasertib -0.172 | [9] -0.019 | [11] -0.087 | [12] -0.16 | sotrastaurin 0.095

MTHFD1 (UniProt V9GZ32)
inactive: [2] 0.045 | [1] -0.18 | [7] 0.088 | [8] 0.008 | volasertib -0.145

MRPS21 (UniProt P82921)
inactive: ibrutinib -0.277 | [2] -0.029 | [1] 0.208 | [4] -0.117 | [5] 0.081 | [7] 0.181 | vemurafenib -0.103 | [8] 0.103 | barasertib -0.032 | [10] -0.139 | volasertib -0.156 | [11] -0.121 | [12] 0.052 | saracatinib -0.001 | sotrastaurin 0.085

MT1G (UniProt P13640)
inactive: ibrutinib -0.002 | [2] -0.017 | [13] -0.208 | [1] -0.032 | [4] 0.045 | [5] 0.16 | [7] 0.013 | vemurafenib -0.089 | [8] 0.023 | barasertib -0.01 | [10] 0.044 | volasertib 0.09 | [11] 0 | [12] -0.056 | saracatinib 0.038 | sotrastaurin -0.18
